Source: patent US20090258005A1
Results are given in words; binding and its absence hold for the method and conditions named. Some results given as binding are weak or reduced against the parent protein; the word gives no strength. Each block holds one binder with its values, some of them ahead of it.

Assays:
L1-CR1 (Her054P) = test: ELISA, soluble scFv on L1-CR1
EQR (Her017P) = test: ELISA, soluble scFv on EQR
[1] = target: Her008P, full-length extracellular domain (ECD) of Her2 expressed with a mIgG2a Fc tail (human; murine) (UniProt P04626); test: ELISA, soluble scFv on ECD
[2] = target: Her018P, Her2 ECD with a deletion in the CR2 (Domain IV) region expressed with a mIgG2a Fc tail (human; murine) (UniProt P04626); test: ELISA, soluble scFv on Her018
[3] = target: ECD region of Her2 (human) (UniProt P04626); test: screening after three rounds of phage selection, soluble periplasmic scFv

binding (L1-CR1 (Her054P)): binds
B1: S1R3A1_CS_1B9 (scFv, V domains shown)
VH: KVQLVQSGTEVKKPGESLKISCQGSGYRFSSDWIAWVRQMPGKGLEWMGIVYPGDSDTRYSPSFQGQVTISADKSISTAYLQWSGLKASDTAKYYCARVQQAVGAKGYAMDVWGKGTLVTVSS
VL: QTVVIQEPSFSVSPGGTVTLTCGLSSGSVSTSYYPSWYRQTPGQAPHTLIHNTKIRSSGVPDRFSGSILGNNAALTITGAQADDESDYYCLLYMGSGIYVFGGGTKLTVL

binding (L1-CR1 (Her054P)): binds
B2: S1R3A1_CS_1B10 (scFv, V domains shown)
VH: EVQLVQSGAEVKKPGASVRVSCKGSGNTFTGHYIHWVRQAPGQGLEWLGWIDPNTGDIQYSENFKGSVTLTRDPSINSVFMDLIRLTSDDTAMYYCAREGAGLANYYYYGLDVWGRGTMVTVSS
VL: QTVVLQEPSFSVSPGGTVTLTCGLNFGSVSTAYYPSWYQQTPGQAPRTLIYGTNIRSSGVPDRFSGSIVGNKAALTITGAQTEDESDYYCALYMGSGMLFGGGTKVTVL

binding (L1-CR1 (Her054P)): binds
binding (EQR (Her017P)): binds
binding [1]: binds
binding [2]: binds
binding [3]: binds
B3: S1R3B1_BMV_1H11 (scFv, V domains shown)
VH: EVQLVQSGGGLVKPGGSLRLSCAASGFTFSSYGMHWVRQAPGKGLEWVAGIFYDGGNKYYADSVKGRFTISRDNSKNTLYLQMNSLRAEDTAVYYCARDRGYYYMDVWGKGTTVTVSS
VL: QSVLTQPPSVSGAPGQRVTISCTGRSSNIGAGHDVHWYQQLPGTAPKLLIYGDSNRPSGVPDRFSGSRSGTSASLAITGLQAEDEADYYCQSYDSSLRGSVFGGGTKVTVL
